Reference: patent US20140155445A1, “Compounds and Methods for Treating Cancer and Diseases of the Central Nervous System” (Osta Biotechnologies Inc., priority 2007, published 2014)

Molecular target: T1, HO-1 (rat spleen) (Rattus norvegicus, UniProt P06762)
T1 construct: Spleen microsomes were used as a source of HO-1; from tissue; host or cells: spleen microsomal fraction of adult male Sprague-Dawley rats
T1 sequence (P06762 1-289): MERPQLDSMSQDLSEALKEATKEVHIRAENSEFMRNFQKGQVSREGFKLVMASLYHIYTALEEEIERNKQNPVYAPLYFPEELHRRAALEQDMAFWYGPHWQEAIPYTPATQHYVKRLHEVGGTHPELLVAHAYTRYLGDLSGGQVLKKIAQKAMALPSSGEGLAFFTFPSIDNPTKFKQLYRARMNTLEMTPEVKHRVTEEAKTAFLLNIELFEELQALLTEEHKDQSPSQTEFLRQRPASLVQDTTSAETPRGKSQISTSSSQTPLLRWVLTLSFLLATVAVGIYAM
Test: HO enzymatic activity in rat spleen microsomal fraction (CO formed from methemalbumin, gas chromatography)
Assay type: biochemical
Conditions: rat spleen microsomes; average ± standard deviation of replicate experiments
Experimental: Incubations for HO activity analysis were done under conditions for which the rate of CO formation (pmol CO×min^−1×mg protein^−1) was linear with respect to time and microsomal protein concentration. Briefly, reaction mixtures (150 μL) consisting of 100 mM phosphate buffer (pH 7.4), 50 μM methemalbumin, and 1 mg/mL protein were pre-incubated with the inhibitors at final concentrations ranging from 0.1-100 μM for 10 minutes at 37° C. Reactions were initiated by adding NADPH at a final concentration of 1 mM and incubations were performed for an additional 15 minutes at 37° C.
Incubations for HO activity analysis were done under conditions for which the rate of CO formation (pmol CO/mg protein/minute) was linear with respect to time and microsomal protein concentration. […] Reactions were stopped by instantly freezing the reaction mixture on pulverized dry ice and CO formation was measured by gas chromatography using a TA 3000R Process Gas Analyzer (Trace Analytical/Ametek, Newark, Del., USA).
The values on the abscissa represent the decimal logarithm of the inhibitor's concentration (in μM), whereas the values of the activity on the ordinate are expressed as a percentage of the control experiments without inhibitor. […]

## COc1ccc(CCN2CCC(Nc3nc4ccccc4n3Cc3ccc(F)cc3)CC2)cc1 [Astemizole, reference compound]
  IC50: > 100 µM
